PubChem BioAssay AID1259299, Sanger Institute, 2017

Test: 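Essential genes and drug-synergistic partners among kinases and colorectal mutation genes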 (primary screen)
Cells: human CAR1 colorectal cancer cells
Reagent: siRNA pool against human genes
Treatment: anchor drug BYL719 1 µM, cetuximab 5 µg/ml or trametinib 10 nM, or DMSO vehicle alone; exposure length not given
Measured: 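Cell viability as fraction of non-targeting siRNA wells, mean of replicates, with robust z-score and a synergy score for each of three drugs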
Direction: viability robust z-score, knock-down alone: higher = more viable cells
Call rule: 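Essential when viability robust z-score with knock-down alone (DMSO) is below -3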
Calls: active = essential (knock-down alone); inactive = no change
This is a random part of 794 reagents tested. 9 of all reagents (1.1%) were called active. 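Calls rest on knock-down alone; synergy scores play no part in calls, and no gene passed the synergy cut.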 Entries without a mark were called inactive. Not all columns of the deposit are shown. The record does not give: the amount of reagent, the time to read-out.

How did the screen score SGK3 [SID56478777]?
viability robust z-score, knock-down alone: 0.412

With TNK2 [SID56478482], how do the results read?
viability robust z-score, knock-down alone: 0.789

With CALM2 [SID134320655], what was measured?
viability robust z-score, knock-down alone: -0.106

For HUS1 [SID135620649], what does the deposit list?
viability robust z-score, knock-down alone: 0.457

What is on record for CHD9 [SID152154196]?
viability robust z-score, knock-down alone: -1.85

With MYLK3 [SID152154935], what was measured?
viability robust z-score, knock-down alone: -0.236

With ELP1 [SID56479224], what does the deposit list?
viability robust z-score, knock-down alone: 0.789

With CILK1 [SID152149076], how do the results read?
viability robust z-score, knock-down alone: -0.27

With AKT3 [SID56478465], what was measured?
viability robust z-score, knock-down alone: -0.648

Which result is listed for FER [SID152156672]?
viability robust z-score, knock-down alone: 0.321

What did the screen give for MAP2K6 [SID135620765]?
viability robust z-score, knock-down alone: 0.789

For PXK [SID152149443], how do the results read?
viability robust z-score, knock-down alone: -0.157

4 of these entries in another layout:
gene symbol,PubChem SID,"viability robust z-score, knock-down alone"
ELP1,SID56479224,0.789
CILK1,SID152149076,-0.27
AKT3,SID56478465,-0.648
FER,SID152156672,0.321

The list goes on:
With N4BP2 [SID152151934], how do the results read?
viability robust z-score, knock-down alone: 0.789

For FES [SID56478510], what was measured?
viability robust z-score, knock-down alone: -0.00105

With RPS6KA6 [SID152153100], what does the deposit list?
viability robust z-score, knock-down alone: 0.703

What is on record for ACSL6 [SID152156030]?
viability robust z-score, knock-down alone: 0.789

For ZC3H11A [SID135624155], what was measured?
viability robust z-score, knock-down alone: 0.789

What did the screen give for PRKCH [SID56478829]?
viability robust z-score, knock-down alone: -1.51

For ITPKA [SID152154114], what was measured?
viability robust z-score, knock-down alone: 0.457

With MINK1 [SID152155809], how do the results read?
viability robust z-score, knock-down alone: 0.789

With TJP2 [SID135621862], what does the deposit list?
viability robust z-score, knock-down alone: -1.51

With BMPR1A [SID135620910], what does the deposit list?
viability robust z-score, knock-down alone: 0.14

What is on record for DCK [SID56479088]?
viability robust z-score, knock-down alone: -0.296

Which result is listed for FRK [SID56478519]?
viability robust z-score, knock-down alone: -0.791

Which result is listed for EPHA1 [SID152153474]?
viability robust z-score, knock-down alone: -0.897

Which result is listed for DAPK1 [SID135620826]?
viability robust z-score, knock-down alone: 0.789

For FGFR2 [SID152155469], what does the deposit list?
viability robust z-score, knock-down alone: 0.789

What did the screen give for LYN [SID135620625]?
viability robust z-score, knock-down alone: 0.789

How did the screen score PCK1 [SID135621257]?
viability robust z-score, knock-down alone: 0.789

With TRIM27 [SID152155375], what was measured?
viability robust z-score, knock-down alone: 0.789

With CSNK2A1 [SID135620685], what was measured?
viability robust z-score, knock-down alone: 0.789

How did the screen score PKMYT1 [SID56478956]?
viability robust z-score, knock-down alone: 0.789

For MAP3K15 [SID152147179], what does the deposit list?
viability robust z-score, knock-down alone: -0.123

Which result is listed for GCK [SID56479241]?
viability robust z-score, knock-down alone: -0.512

For ATR [SID135620635], how do the results read?
viability robust z-score, knock-down alone: -0.457

What did the screen give for COASY [SID56479117]?
viability robust z-score, knock-down alone: -1.7
